According to article PMC12118852:

Target: T1, Flag-duRIG-I (duck) (UniProt D3TI84)
T1 sequence: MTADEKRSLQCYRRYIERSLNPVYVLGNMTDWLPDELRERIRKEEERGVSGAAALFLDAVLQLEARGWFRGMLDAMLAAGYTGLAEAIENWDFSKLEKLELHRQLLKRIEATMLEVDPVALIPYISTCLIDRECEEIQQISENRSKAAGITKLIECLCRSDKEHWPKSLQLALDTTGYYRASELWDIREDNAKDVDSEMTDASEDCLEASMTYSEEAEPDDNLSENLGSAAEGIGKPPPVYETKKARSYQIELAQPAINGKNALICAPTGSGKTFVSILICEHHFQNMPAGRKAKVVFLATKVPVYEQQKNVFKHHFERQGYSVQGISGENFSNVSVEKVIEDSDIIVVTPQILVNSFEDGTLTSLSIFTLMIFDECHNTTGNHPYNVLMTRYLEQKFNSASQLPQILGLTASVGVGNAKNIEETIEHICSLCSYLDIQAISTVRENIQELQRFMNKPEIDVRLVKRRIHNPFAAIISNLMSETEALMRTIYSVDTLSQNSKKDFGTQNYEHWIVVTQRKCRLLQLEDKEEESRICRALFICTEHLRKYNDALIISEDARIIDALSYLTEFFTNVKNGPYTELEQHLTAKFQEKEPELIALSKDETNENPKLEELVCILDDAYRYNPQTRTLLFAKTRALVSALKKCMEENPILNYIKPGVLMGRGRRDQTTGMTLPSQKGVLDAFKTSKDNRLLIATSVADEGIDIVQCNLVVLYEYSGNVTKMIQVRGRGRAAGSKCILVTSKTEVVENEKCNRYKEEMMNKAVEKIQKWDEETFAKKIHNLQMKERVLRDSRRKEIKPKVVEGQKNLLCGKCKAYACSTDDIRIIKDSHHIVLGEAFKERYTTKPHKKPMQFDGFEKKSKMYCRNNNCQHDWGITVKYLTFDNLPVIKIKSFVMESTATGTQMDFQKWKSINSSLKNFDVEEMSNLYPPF
Assay: co-IP; lysates (RIPA buffer) of co-transfected HEK-293T cells; precipitated with anti-Flag antibody overnight at 4°C and protein A/G agarose; western blot

HA-duTRIM14 (duck)
binding: no binding

These are yes or no findings as the source states them, for the method shown. Binding seen in cells or lysates may run through a third protein. Where a sequence is shown, tags or fusion partners need not be part of it.
